Laboratory results reported in publication doi:10.1101/2025.10.16.681972 (bioRxiv, 2025).
These are yes or no findings as the source states them, for the method shown. In cells and extracts the contact can be indirect. Sequences can lack the tags named with a protein.

Columns and labels:
[1] = molecular target: EGFR N-terminally tagged with NanoLuc or HaloTag (nanoBRET constructs) (UniProt P00533); test: FRET or BRET
[2] = molecular target: MERTK N-terminally tagged with NanoLuc or HaloTag (nanoBRET constructs) (UniProt Q12866); test: FRET or BRET

B1: MERTK N-terminally tagged with NanoLuc or HaloTag (nanoBRET constructs) (receptor, UniProt Q12866 21-999)
chain: AITEAREEAKPYPLFPGPFPGSLQTDHTPLLSLPHASGYQPALMFSPTQPGRPHTGNVAIPQVTSVESKPLPPLAFKHTVGHIILSEHKGVKFNCSISVPNIYQDTTISWWKDGKELLGAHHAITQFYPDDEVTAIIASFSITSVQRSDNGSYICKMKINNEEIVSDPIYIEVQGLPHFTKQPESMNVTRNTAFNLTCQAVGPPEPVNIFWVQNSSRVNEQPEKSPSVLTVPGLTEMAVFSCEAHNDKGLTVSKGVQINIKAIPSPPTEVSIRNSTAHSILISWVPGFDGYSPFRNCSIQVKEADPLSNGSVMIFNTSALPHLYQIKQLQALANYSIGVSCMNEIGWSAVSPWILASTTEGAPSVAPLNVTVFLNESSDNVDIRWMKPPTKQQDGELVGYRISHVWQSAGISKELLEEVGQNGSRARISVQVHNATCTVRIAAVTRGGVGPFSDPVKIFIPAHGWVDYAPSSTPAPGNADPVLIIFGCFCGFILIGLILYISLAIRKRVQETKFGNAFTEEDSELVVNYIAKKSFCRRAIELTLHSLGVSEELQNKLEDVVIDRNLLILGKILGEGEFGSVMEGNLKQEDGTSLKVAVKTMKLDNSSQREIEEFLSEAACMKDFSHPNVIRLLGVCIEMSSQGIPKPMVILPFMKYGDLHTYLLYSRLETGPKHIPLQTLLKFMVDIALGMEYLSNRNFLHRDLAARNCMLRDDMTVCVADFGLSKKIYSGDYYRQGRIAKMPVKWIAIESLADRVYTSKSDVWAFGVTMWEIATRGMTPYPGVQNHEMYDYLLHGHRLKQPEDCLDELYEIMYSCWRTDPLDRPTFSVLRLQLEKLLESLPDVRNQADVIYVNTQLLESSEGLAQGSTLAPLDLNIDPDSIIASCTPRAAISVVTAEVHDSKPHEGRYILNGGSEEWEDLTSAPSAAVTAEKNSVLPGERLVRNGVSWSHSSMLPLGSSLPDELLFADDSSEGSEVLM
modifications: HaloTag AlexaFluor488 substrate (membrane impermeable) on the HaloTag copy
Question: Which results are given for B1?
Answer: binding [1]: no binding; binding [2]: no binding
